PMC7693140
Results are given in words; binding and its absence hold for the method and conditions named. Binding seen in cells or lysates may run through a third protein. Some entries that bind do so weakly or less than the wild type.

Sequences of proteins named here, by UniProt entry; tags and fusion partners are left off.
UniProt O15392: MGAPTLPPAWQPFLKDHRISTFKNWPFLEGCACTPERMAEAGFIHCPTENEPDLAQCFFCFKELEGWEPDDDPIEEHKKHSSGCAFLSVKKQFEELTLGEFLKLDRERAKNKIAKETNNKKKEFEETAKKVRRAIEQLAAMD

Molecular target: human Survivin expressed from pCMV-Survivin (human) (UniProt O15392)
Assay: co-IP

B1: JCPyV large T-Antigen expressed from pcDNA3.1/Zeo(+)/JCT in U87-MG cells (protein, UniProt P03072 1-688)
chain: MDKVLNREESMELMDLLGLDRSAWGNIPVMRKAYLKKCKELHPDKGGDEDKMKRMNFLYKKMEQGVKVAHQPDFGTWNSSEVPTYGTDEWESWWNTFNEKWDEDLFCHEEMFASDDENTGSQHSTPPKKKKKVEDPKDFPVDLHAFLSQAVFSNRTVASFAVYTTKEKAQILYKKLMEKYSVTFISRHGFGGHNILFFLTPHRHRVSAINNYCQKLCTFSFLICKGVNKEYLFYSALCRQPYAVVEESIQGGLKEHDFNPEEPEETKQVSWKLVTQYALETKCEDVFLLMGMYLDFQENPQQCKKCEKKDQPNHFNHHEKHYYNAQIFADSKNQKSICQQAVDTVAAKQRVDSIHMTREEMLVERFNFLLDKMDLIFGAHGNAVLEQYMAGVAWIHCLLPQMDTVIYDFLKCIVLNIPKKRYWLFKGPIDSGKTTLAAALLDLCGGKSLNVNMPLERLNFELGVGIDQFMVVFEDVKGTGAESRDLPSGHGISNLDCLRDYLDGSVKVNLERKHQNKRTQVFPPGIVTMNEYSVPRTLQARFVRQIDFRPKAYLRKSLSCSEYLLEKRILQSGMTLLLLLIWFRPVADFAAAIHERIVQWKERLDLEISMYTFSTMKANVGMGRPILDFPREEDSEAEDSGHGSSTESQSQCFSQVSEASGADTQENCTFHICKGFQCFKKPKTPPPK
binding: binds
